The supplement of paper PMC12823440, “Inhibitors supercharge kinase turnover through native proteolytic circuits” (Nature, 2025)
Where a name gives a salt, the structure may show the parent alone. The list shows a part of the results. Hit calls seldom repeat between salt and free forms of one compound.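 Kinases were expressed as nanoluciferase fusions in K562 cells and luminescence was read every 4 h between 2 and 18 h as percent of control, DMSO set to 100% and a positive control to 0%. A time point counts as decreased when the signal drops significantly (2 sigma). The hit call is the authors' own, does not follow from the count of time points alone, and its rule is not shown.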

Chains of the proteins cited; added tags and fusions are not shown.
UniProt P50750, whole entry: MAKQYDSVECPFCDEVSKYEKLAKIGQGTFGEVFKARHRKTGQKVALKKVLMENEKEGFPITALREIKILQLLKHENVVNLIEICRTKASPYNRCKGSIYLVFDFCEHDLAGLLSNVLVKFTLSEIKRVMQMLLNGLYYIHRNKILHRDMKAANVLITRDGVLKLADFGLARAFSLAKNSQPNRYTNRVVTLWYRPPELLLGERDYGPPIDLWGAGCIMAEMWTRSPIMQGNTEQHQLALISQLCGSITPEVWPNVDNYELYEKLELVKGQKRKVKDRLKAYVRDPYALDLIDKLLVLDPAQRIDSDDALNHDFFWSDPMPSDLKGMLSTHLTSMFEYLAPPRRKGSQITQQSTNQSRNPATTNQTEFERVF

molecular target: CDK9 (UniProt P50750); assay: number of time points (of 4; 2 h point missing) at which kinase-Nluc abundance scored as decreased, DMSO-normalised (count); higher = more persistent destabilization; details: 2.5 µM; K562; 2-18 h

Row | SMILES | number of time points
1 | COc1ccc(S(=O)(=O)N(CCO)c2ccccc2CN(C)C/C=C/c2ccc(Cl)cc2)cc1 [KN-93 (phosphate)] | 0
2 | COc1ccc(S(=O)(=O)Nc2ccccc2CN(C)C/C=C/c2ccc(Cl)cc2)cc1 [KN-92 (hydrochloride)] | 0
3 | O=C(Nc1ccncc1)Nc1ccc(-c2nc(N3CCOCC3)nc(N3C4CCC3COC4)n2)cc1 [PKI-179 (hydrochloride)] | 3
4 | CN(C)C(=O)c1cc2cnc(Nc3ccc(N4CCNCC4)cn3)nc2n1C1CCCC1 [Ribociclib hydrochloride] | 0
5 | COc1ccc(S(=O)(=O)N(CCO)c2ccccc2CN(C)C/C=C/c2ccc(Cl)cc2)cc1 [KN-93 (hydrochloride)] | 0
6 | Clc1ccc(C2(c3ccc(-c4cn[nH]c4)cc3)CCNCC2)cc1 [AT7867 (dihydrochloride)] | 0
7 | CCCCCCCCc1ccc(CCC(N)(CO)CO)cc1 [Fingolimod (hydrochloride)] | 0
8 | COc1ccc(S(=O)(=O)Nc2ccccc2CN(C)C/C=C/c2ccc(Cl)cc2)cc1 [KN-92 (phosphate)] | 0
9 | CN(C)C/C=C/C(=O)Nc1cc2c(Nc3ccc(F)c(Cl)c3)ncnc2cc1O[C@H]1CCOC1 [Afatinib (dimaleate)] | 0
10 | C=CC(=O)Nc1cc(Nc2nccc(-c3cn(C4CC4)c4ccccc34)n2)c(OC)cc1N(C)CCN(C)C [Almonertinib] | 0
11 | C[C@H](Nc1cc(-c2cnn(C)c2)cc(Nc2cnccn2)n1)c1ccc(F)cc1 [Ilginatinib hydrochloride] | 0
12 | CN1CCCN(C(=O)c2cccc(-c3ccc(/C=C4/C(=O)Nc5ccc(Cl)cc54)o3)c2)CC1 [CX-6258 (hydrochloride)] | 0
13 | Cc1ccc(NC(=O)c2ccc(CN3CCN(C)CC3)cc2)cc1Nc1nc(-c2cccnc2)cs1 [Masitinib (mesylate)] | 0

same assay, conditions: 10 µM; K562; 2-18 h

Row | SMILES | number of time points
14 | CCCC(=O)Nc1ncnc2c1ncn2[C@@H]1O[C@@H]2COP(=O)(O)O[C@H]2[C@H]1OC(=O)CCC [Bucladesine (calcium)] | 0
15 | N#CC[C@H](C1CCCC1)n1cc(-c2ncnc3[nH]ccc23)cn1 [Ruxolitinib] | 0
16 | COc1cc2c(-c3cnn4cc(N5CCC(N6CCN(C)CC6)CC5)cnc34)ccnc2cc1F | 0
17 | Cn1ncc(Cl)c1-c1cc(C(=O)N[C@H](CN)Cc2cccc(F)c2)sc1Cl [Afuresertib (hydrochloride)] | 0
18 | CCS(=O)(=O)N1CC(CC#N)(n2cc(-c3ncnc4[nH]ccc34)cn2)C1 [Baricitinib] | 0
19 | C/C=C1\C(=O)C[C@H]2[C@@H]3CCC4=CC(=O)CC[C@]4(C)[C@H]3CC[C@]12C [(Z)-Guggulsterone] | 0
20 | CC(C)NC[C@@H](C(=O)N1CCN(c2ncnc3c2[C@H](C)C[C@H]3O)CC1)c1ccc(Cl)cc1 [Ipatasertib] | 0
21 | CS(=O)(=O)N1CCN(Cc2cc3nc(-c4cccc5[nH]ncc45)nc(N4CCOCC4)c3s2)CC1 [Pictilisib (dimethanesulfonate)] | 0
22 | CC(=O)N[C@H](Cc1ccc(O)cc1)C(=O)N[C@H](CCCN=C(N)N)C(=O)N[C@H](Cc1ccccc1)C(N)=O | 0
23 | OCCn1cc(-c2cnc3nnn(Cc4ccc5ncccc5c4)c3n2)cn1 | 0
24 | COc1cc2nccc(Nc3cc(OC)c(OC)c(OC)c3)c2cc1OC [GAK inhibitor 49 (hydrochloride)] | 1
25 | O=C(c1ccc(F)c(F)c1Nc1ccc(I)cc1F)N1CC(O)([C@@H]2CCCCN2)C1 [Cobimetinib] | 0
26 | COCCOc1cc(F)c2c(Nc3ccc(NC(=O)Cn4cc(C(C)C)nn4)cc3)ncnc2c1 [AZD3229 Tosylate] | 0
27 | COc1cc2nccc(Oc3ccc(NC(=O)C4(C(=O)Nc5ccc(F)cc5)CC4)cc3)c2cc1OC [Cabozantinib (S-malate)] | 0
28 | COc1cc(/C=C/C(=O)O)ccc1O [Ferulic acid (sodium)] | 0
29 | CC(C)(C)n1nc(-c2cccc3ccccc23)c2c(N)ncnc21 [1-Naphthyl PP1 (hydrochloride)] | 0
30 | FC(F)(F)c1ccc(CNc2ccc(Cc3c[nH]c4ncc(Cl)cc34)cn2)cn1 [Pexidartinib] | 0
31 | CNC(=O)c1ccccc1Nc1cc(Nc2ccc(N3CCOCC3)cc2OC)ncc1C(F)(F)F [PND-1186 (hydrochloride)] | 0
32 | O=C(c1ccc(F)c(F)c1Nc1ccc(I)cc1F)N1CC(O)([C@@H]2CCCCN2)C1 [Cobimetinib (hemifumarate)] | 0
33 | COc1ncc(F)cc1CNc1ccc(Cc2c[nH]c3ncc(C)cc23)c(F)n1 | 0
34 | COc1cc2c(-c3cnn4cc(N5CCC(N6CCN(C)CC6)CC5)cnc34)ccnc2cc1F [ALK2-IN-4 (succinate)] | 0
35 | COc1ccnc(C[S+]([O-])c2nc3cc(-n4cccc4)ccc3[nH]2)c1C (stereo not given) [Ilaprazole (sodium)] | 0

Retrieved one by one from the entries so far (2):
Row | SMILES | number of time points
20 | CC(C)NC[C@@H](C(=O)N1CCN(c2ncnc3c2[C@H](C)C[C@H]3O)CC1)c1ccc(Cl)cc1 [Ipatasertib] | 0
24 | COc1cc2nccc(Nc3cc(OC)c(OC)c(OC)c3)c2cc1OC [GAK inhibitor 49 (hydrochloride)] | 1
